Experiment [1] relates to Karenia brevis. The experiment in a line: Anti-phytoplankton activity against Karenia brevis assessed as change in chlorophyll a level measured after 72 hrs by fluorescence based analysis. Type of experiment: functional, organism-based.
Experiment [2] in a line: Anti-phytoplankton activity against Skeletonema grethae assessed as reduction in chlorophyll a level measured after 72 hrs by fluorescence based analysis. It counts as functional, organism-based.

Consider `CC(=O)NCCc1c[nH]c2cc(F)ccc12`, for which the IC50 (in general, the point on the concentration scale where inhibition reaches its midpoint) in experiment [1] came to 140 µM; in experiment [2], 23.2 µM.

The record behind these values is ChEMBL document CHEMBL5357056, “Precursor-Directed Biosynthesis of Antialgal Fluorinated Bacillamide Derivatives in Bacillus atrophaeus” (J Nat Prod, 2024).
